No constants are given. Whether binding was seen depends on the method and setting. Some entries that bind do so weakly or less than the wild type.
What was measured:
[1] = target: human PD-L1 on cells (human) (UniProt Q9NZQ7); assay: flow cytometry, human PD-L1 transfected HEK 293 cells
[2] = target: human PD-L1 on cells (human) (UniProt Q9NZQ7); assay: flow cytometry on HEK-PD-L1 cells; PE anti-human Fc, MFI
[3] = target: human PD-L1 on cells (human) (UniProt Q9NZQ7); assay: flow cytometry, PD-L1 transfected HEK 293 cells
[4] = target: human PD-L1 on cells (human) (UniProt Q9NZQ7); assay: flow cytometry, anti-CD3-activated human CD4+ T cells
[5] = target: recombinant cynomolgus monkey PD-L1 (cynomolgus monkey) (UniProt G7PSE7); assay: direct ELISA on coated recombinant PD-L1
[6] = target: recombinant human PD-L1 (human) (UniProt Q9NZQ7); assay: direct ELISA on coated recombinant PD-L1
[7] = target: human PD-L1 on cells (human) (UniProt Q9NZQ7); assay: flow cytometry, myeloid-derived dendritic cells
[8] = target: recombinant human PD-L1 (human) (UniProt Q9NZQ7); assay: competition ELISA on coated PD-L1, competitor biotinylated Atezolizumab
[9] = target: recombinant human PD-L1 (human) (UniProt Q9NZQ7); assay: competition ELISA: PD-L1 coated, serial dilutions of the antibody, then biotinylated Atezolizumab at 1 µg/ml, streptavidin-HRP, OD 650 nm
[10] = target: recombinant cynomolgus monkey PD-L1 (cynomolgus monkey) (UniProt G7PSE7); assay: direct ELISA on plate-coated recombinant cynomolgus monkey PD-L1; anti-human Fc-HRP, TMB, OD 650 nm
[11] = target: human PD-L1 on cells (human) (UniProt Q9NZQ7); assay: flow cytometry, human monocyte-derived myeloid dendritic cells
[12] = target: recombinant human PD-L1 (human) (UniProt Q9NZQ7); assay: direct ELISA on plate-coated recombinant human PD-L1; anti-human Fc-HRP, TMB, OD 650 nm
[13] = target: human PD-L1-his (Sino Biologics) (human) (UniProt Q9NZQ7); assay: competition ELISA: human PD-L1-his coated at 1 µg/ml, antibody dilutions, then human PD-1-mouse-Fc at 1 µg/ml, anti-mouse IgG-HRP, OD 650 nm

The chains behind the UniProt entries cited, without tags or fusion partners. Where a name states a change or a piece, a line headed by the entry shows the natural chain unless it says otherwise. Residues count along the entry.
UniProt Q9NZQ7: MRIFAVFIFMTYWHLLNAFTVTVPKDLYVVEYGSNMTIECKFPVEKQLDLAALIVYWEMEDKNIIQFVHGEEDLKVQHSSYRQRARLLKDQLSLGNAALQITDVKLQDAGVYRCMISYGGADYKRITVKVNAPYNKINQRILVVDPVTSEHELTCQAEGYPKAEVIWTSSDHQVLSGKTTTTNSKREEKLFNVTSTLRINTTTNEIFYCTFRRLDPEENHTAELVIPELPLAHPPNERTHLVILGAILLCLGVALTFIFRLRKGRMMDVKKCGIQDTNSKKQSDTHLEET
human PD-L1 on cells: residues 19-290 of Q9NZQ7

Measured: binding

B1: chimeric anti-PD-L1 antibody 9A9 (antibody, human IgG1, V domains shown)
VH: QSVEESGGRLVTPGTPLTLTCTVSGIDLSGYWMSWVRQAPGKGLEYIGIVDNDGSAYYASWVNGRFTISKTSTTVDLKITSPTTEDTATYFCARQSGDWTFDLWGPGTLVTVSS
VL: DVVMTQTPASVSEPVGGTVTIKCQASQSIGRWLSWYQQKPGQPPKLLIYQASKLASGVPSRFSGSGSGTEFTLTISDLECADAATYYCQNNYDIIAYGNAFGGGTEVVVK
binds: all assays above

B2: chimeric anti-PD-L1 antibody 43G2 (antibody, human IgG1, V domains shown)
VH: QSVEESGGRLVTPGTPLTLTCTVSGFSLSSYAMGWVRQAPGEGLEYIGFIDTHGSAYYATWAKGRFTISRTSTTVDLKITSPTTEDTATYFCARNVWTNAGYFNLWGPGTLVTVSS
VL: DVVMTQTPSSVSAAVGGTVTIKCQASQNIYTNLAWYQQKPGQPPKLLIYSASTLASGVPSRFKGSGSGTQFTLTISDLECADAATYYCQTYGALIINGGAFGGGTEVVVK
binds: [5] | [10]

B3: chimeric anti-PD-L1 antibody 23D12 (antibody, human IgG1, V domains shown)
VH: QSVEESGGRLVTPGTPLTLTCTVSGFSLSNYVMGWVRQAPGKGLEYIGIISNSDNTYYATWATGRFTISKTSTTVDLKMTSLTTEDTATYFCARVDTYYNDFNLWGPGTLVTVSS
VL: QVLTQTPSSVEAAVGGTVTIKCQASEDIERYLAWYQQKPGQPPKQLIYDASKLASGVSSRFKGSGSGTEFTLTISGVQCDDAATYYCQHGYIYSSGNPFGGGTEVVVK
binds: [5] | [10]

B4: chimeric anti-PD-L1 antibody 51D5 (antibody, human IgG1, V domains shown)
VH: QSVEESGGRLVTPGTPLTLTCIVSGFSLSSYWMSWVRRAPGKGLEWIGYINGGSGNPYYASWAKGRFTISKTSTTVDLKITSPTTEDTATYFCARGGESDDYVYGRYGLDPWGPGTLVTVSS
VL: AYDMTQTPASVSEPVGGTVTIKCQASQSISSWLSWYQQKPGQPPKLLIYDASKLASGVPSRFSGSGSGTQFTLTISDLECDDAATYYCQQDYSSYNVDNTFGGGTEVVVK
binds: [5] | [10]

B5: chimeric anti-PD-L1 antibody 11B11 (antibody, human IgG1, V domains shown)
VH: QSVEESGGRLVTPGGTLTLTCTASGFSLSNYTMAWVRQAAGKGLEWIGYINTGGSPYYASWAKGRFTISRSSTTVDLKMTSLTTEDTATYFCARNVDGAWNYLNLWGPGTLVTVSS
VL: AYDMTQTPASVEVVVGGTVTIKCQASETINTYLSWYQQKPGQRPRLLIYAASNLASGVPSRFSGSGSGTEFTLTISGVQCADAATYYCQQGINSNVGNTFGGGTEVVVK
binds: [5]

B6: chimeric anti-PD-L1 antibody 39B9 (antibody, human IgG1, V domains shown)
VH: QSVEESGGRLVTPGTPLTLTCTVSGFSLSNYWMSWVRQAPGKGLEWIGYINGGSGGTYYASWAKGRFTSSKTSTTVDLKITSPTTEDTATYFCARGGESDDYIYGRYGFDPWGPGTLVTVSS
VL: AYDMTQTPASVSEPVGGTVTIKCQASQSISSWLSWYQQKPGQPPKLLIYQASKLASGVSSRFKGSGSGTDFTLTIIGVECADAATYYCQQDYASYNVDNTFGGGTEVVVK
binds: [5] | [6]

Source: patent US20190218296A1
